These are literature values, as cited in patent US5348941A, “Stabilizers for fibroblast growth factors” (Merck & Co., Inc., priority 1992, dated 1994).

For the data set the following is noted: affinity chromatography; cited from earlier work.

In the case of “aFGF: human acidic fibroblast growth factor, molecular mass of about 15.9 kDa”, the “salt concentration required for elution from heparin” value is given as 1.0 M.
For the substance “bFGF: basic fibroblast growth factor, molecular mass of about 16.3 kDa”, the “salt concentration required for elution from heparin” value is recorded as 1.6 M.
